Data taken from article PMC7913681.
Results are given in words; binding and its absence hold for the method and conditions named. In cells and extracts the contact can be indirect.

Protein sequences, listed by entry. Tags and fused reporters are not part of them. Lines headed by an entry give the natural chain unless they say otherwise; changes in a name come on top. Residues count along the entry.
UniProt Q96L73: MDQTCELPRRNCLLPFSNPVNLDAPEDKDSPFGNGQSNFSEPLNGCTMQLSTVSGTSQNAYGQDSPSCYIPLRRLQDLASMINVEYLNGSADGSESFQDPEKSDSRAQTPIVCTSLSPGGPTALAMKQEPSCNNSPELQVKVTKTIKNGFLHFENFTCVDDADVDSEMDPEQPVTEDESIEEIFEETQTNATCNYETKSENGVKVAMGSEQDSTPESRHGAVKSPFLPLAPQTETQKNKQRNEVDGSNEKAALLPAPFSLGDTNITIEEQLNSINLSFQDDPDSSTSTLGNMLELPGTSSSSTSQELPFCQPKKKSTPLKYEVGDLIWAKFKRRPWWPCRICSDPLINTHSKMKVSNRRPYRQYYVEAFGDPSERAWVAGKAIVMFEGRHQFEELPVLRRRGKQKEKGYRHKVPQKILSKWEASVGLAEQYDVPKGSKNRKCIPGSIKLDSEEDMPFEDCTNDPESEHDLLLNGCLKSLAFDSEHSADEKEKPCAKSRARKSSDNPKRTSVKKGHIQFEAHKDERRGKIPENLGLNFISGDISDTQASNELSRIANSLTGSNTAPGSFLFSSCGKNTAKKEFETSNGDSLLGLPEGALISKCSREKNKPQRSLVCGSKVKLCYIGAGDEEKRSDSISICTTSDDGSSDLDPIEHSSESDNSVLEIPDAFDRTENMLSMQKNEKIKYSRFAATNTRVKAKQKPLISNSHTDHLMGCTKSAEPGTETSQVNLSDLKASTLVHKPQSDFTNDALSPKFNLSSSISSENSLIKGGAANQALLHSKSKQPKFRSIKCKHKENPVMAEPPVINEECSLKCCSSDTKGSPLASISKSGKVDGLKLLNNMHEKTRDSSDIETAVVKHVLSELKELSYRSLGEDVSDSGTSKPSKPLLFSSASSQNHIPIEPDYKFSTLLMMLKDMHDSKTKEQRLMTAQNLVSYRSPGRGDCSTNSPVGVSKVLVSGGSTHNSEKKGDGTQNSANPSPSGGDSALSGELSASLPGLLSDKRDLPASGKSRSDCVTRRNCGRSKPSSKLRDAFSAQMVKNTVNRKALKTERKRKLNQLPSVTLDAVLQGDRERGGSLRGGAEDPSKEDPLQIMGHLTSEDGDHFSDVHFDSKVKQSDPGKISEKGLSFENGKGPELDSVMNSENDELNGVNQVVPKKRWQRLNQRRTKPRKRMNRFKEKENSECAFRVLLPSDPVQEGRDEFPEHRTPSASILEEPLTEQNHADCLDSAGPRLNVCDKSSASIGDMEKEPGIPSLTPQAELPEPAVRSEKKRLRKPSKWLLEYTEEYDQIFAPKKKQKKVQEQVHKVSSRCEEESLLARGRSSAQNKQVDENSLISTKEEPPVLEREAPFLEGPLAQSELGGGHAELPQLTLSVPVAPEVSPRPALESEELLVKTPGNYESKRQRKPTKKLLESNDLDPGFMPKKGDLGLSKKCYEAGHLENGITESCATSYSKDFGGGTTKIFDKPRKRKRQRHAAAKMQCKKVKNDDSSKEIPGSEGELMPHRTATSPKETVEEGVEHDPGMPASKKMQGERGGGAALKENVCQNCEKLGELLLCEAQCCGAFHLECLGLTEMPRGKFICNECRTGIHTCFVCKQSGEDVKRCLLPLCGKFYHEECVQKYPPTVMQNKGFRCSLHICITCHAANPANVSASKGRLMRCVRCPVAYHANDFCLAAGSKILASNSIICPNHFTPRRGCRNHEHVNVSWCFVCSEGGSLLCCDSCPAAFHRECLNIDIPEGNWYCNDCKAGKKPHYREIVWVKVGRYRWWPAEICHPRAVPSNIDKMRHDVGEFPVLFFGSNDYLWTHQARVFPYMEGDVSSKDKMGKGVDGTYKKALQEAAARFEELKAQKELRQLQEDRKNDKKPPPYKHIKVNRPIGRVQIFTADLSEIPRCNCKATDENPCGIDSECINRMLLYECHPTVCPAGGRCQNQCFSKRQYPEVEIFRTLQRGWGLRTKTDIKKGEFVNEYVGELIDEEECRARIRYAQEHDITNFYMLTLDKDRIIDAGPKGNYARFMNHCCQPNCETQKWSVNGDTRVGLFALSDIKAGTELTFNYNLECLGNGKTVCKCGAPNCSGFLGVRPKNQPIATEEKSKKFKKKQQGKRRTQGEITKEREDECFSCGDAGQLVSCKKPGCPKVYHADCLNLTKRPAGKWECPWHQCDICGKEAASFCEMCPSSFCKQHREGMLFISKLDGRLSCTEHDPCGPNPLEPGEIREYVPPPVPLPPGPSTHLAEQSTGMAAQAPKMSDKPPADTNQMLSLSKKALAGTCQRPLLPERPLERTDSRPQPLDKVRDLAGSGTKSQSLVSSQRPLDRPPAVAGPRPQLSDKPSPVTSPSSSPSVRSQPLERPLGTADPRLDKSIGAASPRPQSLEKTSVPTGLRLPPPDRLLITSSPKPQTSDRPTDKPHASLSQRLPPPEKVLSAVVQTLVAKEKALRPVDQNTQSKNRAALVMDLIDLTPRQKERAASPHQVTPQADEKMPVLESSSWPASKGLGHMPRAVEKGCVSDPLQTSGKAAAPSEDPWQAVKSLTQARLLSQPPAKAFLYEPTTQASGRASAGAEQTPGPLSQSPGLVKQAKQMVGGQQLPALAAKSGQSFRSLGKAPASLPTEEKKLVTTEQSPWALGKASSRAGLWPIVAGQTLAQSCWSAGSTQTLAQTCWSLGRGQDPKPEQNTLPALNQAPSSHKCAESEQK
UniProt P26367, residues 1-302: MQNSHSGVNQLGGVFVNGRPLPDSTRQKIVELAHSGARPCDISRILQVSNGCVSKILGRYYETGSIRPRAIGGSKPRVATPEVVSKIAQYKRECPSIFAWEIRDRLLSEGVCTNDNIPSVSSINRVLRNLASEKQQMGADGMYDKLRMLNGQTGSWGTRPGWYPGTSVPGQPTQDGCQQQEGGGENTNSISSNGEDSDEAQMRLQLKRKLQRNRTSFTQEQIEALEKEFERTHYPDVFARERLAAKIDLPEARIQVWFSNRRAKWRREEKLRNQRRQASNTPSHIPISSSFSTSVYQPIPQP

Molecular target: myc-NSD1 (UniProt Q96L73)
Experiment: co-IP; tagged proteins co-expressed in 293FT (HEK293FT) cells, co-IP from extracts; which partner was precipitated is not told

binding: no binding
Substance: Flag-ΔC (from UniProt P26367 1-302) (domain or fragment)
